Reference: paper PMC9879976
These are yes or no findings as the source states them, for the method shown. In cells and extracts the contact can be indirect.

Chains of the proteins cited; added tags and fusions are not shown.
UniProt Q8NHV4: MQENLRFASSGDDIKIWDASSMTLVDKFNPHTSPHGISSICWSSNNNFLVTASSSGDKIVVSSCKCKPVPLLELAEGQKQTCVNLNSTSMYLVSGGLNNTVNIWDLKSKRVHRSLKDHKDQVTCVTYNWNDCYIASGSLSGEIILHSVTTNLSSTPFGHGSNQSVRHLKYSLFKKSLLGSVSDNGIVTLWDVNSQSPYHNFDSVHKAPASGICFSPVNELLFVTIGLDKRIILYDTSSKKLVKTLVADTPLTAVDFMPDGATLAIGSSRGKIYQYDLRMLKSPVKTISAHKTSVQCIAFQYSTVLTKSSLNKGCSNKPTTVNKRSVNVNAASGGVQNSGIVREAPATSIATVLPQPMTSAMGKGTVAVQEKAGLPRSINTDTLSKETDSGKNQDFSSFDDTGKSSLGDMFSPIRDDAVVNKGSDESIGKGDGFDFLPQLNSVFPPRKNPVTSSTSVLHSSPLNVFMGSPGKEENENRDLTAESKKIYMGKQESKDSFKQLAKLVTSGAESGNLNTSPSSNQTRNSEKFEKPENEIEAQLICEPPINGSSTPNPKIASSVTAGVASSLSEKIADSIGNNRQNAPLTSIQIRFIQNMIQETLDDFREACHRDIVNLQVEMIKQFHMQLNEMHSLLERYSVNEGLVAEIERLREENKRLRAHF
UniProt Q14008: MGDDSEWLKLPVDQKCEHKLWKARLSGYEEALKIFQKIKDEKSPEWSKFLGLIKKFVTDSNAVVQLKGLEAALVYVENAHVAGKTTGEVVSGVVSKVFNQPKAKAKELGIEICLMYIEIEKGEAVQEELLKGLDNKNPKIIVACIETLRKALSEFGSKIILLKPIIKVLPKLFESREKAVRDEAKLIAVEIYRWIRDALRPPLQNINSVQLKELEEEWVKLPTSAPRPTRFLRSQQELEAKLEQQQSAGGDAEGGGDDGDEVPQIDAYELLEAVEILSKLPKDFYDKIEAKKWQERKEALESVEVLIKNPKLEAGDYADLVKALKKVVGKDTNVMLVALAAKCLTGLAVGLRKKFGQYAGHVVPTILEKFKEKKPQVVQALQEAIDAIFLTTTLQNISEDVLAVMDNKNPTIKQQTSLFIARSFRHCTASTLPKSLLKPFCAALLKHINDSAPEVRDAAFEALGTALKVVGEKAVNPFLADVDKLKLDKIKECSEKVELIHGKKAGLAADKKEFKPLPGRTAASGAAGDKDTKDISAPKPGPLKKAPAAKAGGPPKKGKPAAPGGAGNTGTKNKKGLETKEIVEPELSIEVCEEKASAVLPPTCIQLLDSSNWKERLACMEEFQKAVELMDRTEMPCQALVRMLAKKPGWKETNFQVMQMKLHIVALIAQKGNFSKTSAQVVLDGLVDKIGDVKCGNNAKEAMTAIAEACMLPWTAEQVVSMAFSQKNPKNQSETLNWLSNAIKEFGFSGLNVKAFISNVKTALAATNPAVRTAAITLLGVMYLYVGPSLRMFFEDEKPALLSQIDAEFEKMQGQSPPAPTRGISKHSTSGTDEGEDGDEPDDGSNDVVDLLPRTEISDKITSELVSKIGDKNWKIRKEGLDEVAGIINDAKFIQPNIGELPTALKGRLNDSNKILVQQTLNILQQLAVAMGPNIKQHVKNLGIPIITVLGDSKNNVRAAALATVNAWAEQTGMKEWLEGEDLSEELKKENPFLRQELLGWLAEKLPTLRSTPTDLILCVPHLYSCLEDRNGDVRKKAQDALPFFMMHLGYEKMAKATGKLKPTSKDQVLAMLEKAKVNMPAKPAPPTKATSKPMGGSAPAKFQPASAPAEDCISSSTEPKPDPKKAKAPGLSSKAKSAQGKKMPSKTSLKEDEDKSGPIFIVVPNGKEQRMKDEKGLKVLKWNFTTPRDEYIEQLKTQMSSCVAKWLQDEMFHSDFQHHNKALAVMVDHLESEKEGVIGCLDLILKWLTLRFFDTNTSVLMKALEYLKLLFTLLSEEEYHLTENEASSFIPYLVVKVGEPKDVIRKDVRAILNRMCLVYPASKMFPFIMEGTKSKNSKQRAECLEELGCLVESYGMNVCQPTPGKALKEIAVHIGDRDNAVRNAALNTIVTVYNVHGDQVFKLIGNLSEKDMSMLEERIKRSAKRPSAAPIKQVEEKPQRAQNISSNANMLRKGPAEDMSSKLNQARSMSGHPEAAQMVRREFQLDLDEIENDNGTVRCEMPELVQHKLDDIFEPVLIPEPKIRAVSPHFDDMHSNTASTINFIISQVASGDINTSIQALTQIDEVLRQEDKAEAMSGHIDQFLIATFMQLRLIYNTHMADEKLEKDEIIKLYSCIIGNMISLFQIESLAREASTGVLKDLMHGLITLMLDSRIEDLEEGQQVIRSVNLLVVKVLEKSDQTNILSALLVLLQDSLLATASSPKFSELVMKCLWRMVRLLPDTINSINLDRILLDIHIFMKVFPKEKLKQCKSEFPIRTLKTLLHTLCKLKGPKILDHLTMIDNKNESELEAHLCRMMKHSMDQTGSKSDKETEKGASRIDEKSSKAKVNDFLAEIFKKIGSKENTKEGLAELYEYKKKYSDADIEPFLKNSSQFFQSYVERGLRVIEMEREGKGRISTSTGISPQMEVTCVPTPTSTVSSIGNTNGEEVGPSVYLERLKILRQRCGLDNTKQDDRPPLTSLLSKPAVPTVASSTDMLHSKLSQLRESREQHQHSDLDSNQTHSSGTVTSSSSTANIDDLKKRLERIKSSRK

Target: NEDD1 (human (endogenous in U2OS)) (UniProt Q8NHV4)
Test: co-IP; endogenous ch-TOG, GCP3 or NEDD1 immunoprecipitated from U2OS lysate (20 mM Tris-HCl pH 8.0, 100 mM NaCl, 1 mM EGTA, 1 mM MgCl2, 0.5% NP40), 30 min at 4 °C, Protein G dynabeads, Western blot; unspecific rabbit IgG as control

In the case of ch-TOG (from UniProt Q14008 1-2032), the binding was “no binding”.
